Record: PubChem BioAssay AID504786 (Drosophila RNAi Screening Center, 2011)
In all, the deposit lists about 21,000 reagents; shown is a random part of those with a known target gene and a result. 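Primary screen; positive scores mean lost reporter signal, so the sign may be inverted from the usual convention.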 Not all columns of the deposit are shown.

Aim: 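Knock-downs reducing HIF reporter induction by the iron chelator DFO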 (primary screen)
Cell system: Drosophila S2 cells with a stable HIF luciferase reporter
Knock-down reagent: long dsRNA against Drosophila genes, about 0.2 µg dsRNA per well of a 384-well plate
Duration: three days of knock-down, then 20 h of DFO before reading
Challenge: desferrioxamine (DFO) at 100 µM, an iron chelator that mimics hypoxia, for 20 h
Detection: 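HIF reporter luminescence in cells given 100 µM DFO for 20 h, using the mouse ldh-a hypoxia-response element, scored as per-plate z-scores; higher means greater loss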
Reading the numbers: z-score: higher = stronger loss of HIF reporter signal

The opening 3 entries as a preview:
Dtwd2 (GeneID 40873) [DRSC12501] → z-score, replicate 1: -0.1
CG10214 (GeneID 42811) [DRSC14213] → z-score, replicate 1: -0.2
spn-B (GeneID 41746) [DRSC17063] → z-score, replicate 1: -0.1

Results, from the start:
Dtwd2 (GeneID 40873) [DRSC12501] → z-score, replicate 1: -0.1
CG10214 (GeneID 42811) [DRSC14213] → z-score, replicate 1: -0.2
spn-B (GeneID 41746) [DRSC17063] → z-score, replicate 1: -0.1
CG32086 (GeneID 326195) [DRSC10586] → z-score, replicate 1: -0.3
Ptpmeg2 (GeneID 31907) [DRSC18277] → z-score, replicate 1: -0.4
Ptpmeg2 (GeneID 31907) [DRSC18278] → z-score, replicate 1: -0.3
ZAP3 (GeneID 31942) [DRSC17852] → z-score, replicate 1: 0
ZAP3 (GeneID 31942) [DRSC17853] → z-score, replicate 1: -0.1
ZAP3 (GeneID 31942) [DRSC18249] → z-score, replicate 1: 0.3
CG17234 (GeneID 59225) [DRSC00490] → z-score, replicate 1: -0.3
ND-PDSW (GeneID 44228) [DRSC00715] → z-score, replicate 1: -0.3
CG11360 (GeneID 43810) [DRSC17124] → z-score, replicate 1: 0
CG11360 (GeneID 43810) [DRSC17134] → z-score, replicate 1: -0.3
CG8152 (GeneID 36696) [DRSC07083] → z-score, replicate 1: -0.1
ebo (GeneID 47141) [DRSC18787] → z-score, replicate 1: 0
Ocrl (GeneID 31157) [DRSC18576] → z-score, replicate 1: -0.4
CG14369 (GeneID 41660) [DRSC14831] → z-score, replicate 1: -0.3
CG33111 (GeneID 50068) [DRSC14208] → z-score, replicate 1: -0.3
CG33111 (GeneID 50068) [DRSC14444] → z-score, replicate 1: -0.3
CG9822 (GeneID 37440) [DRSC04568] → z-score, replicate 1: 0
Ets65A (GeneID 38700) [DRSC09968] → z-score, replicate 1: -0.1
Ets65A (GeneID 38700) [DRSC10738] → z-score, replicate 1: 0
Ets65A (GeneID 38700) [DRSC11164] → z-score, replicate 1: -0.1
rdog (GeneID 43450) [DRSC14431] → z-score, replicate 1: -0.3
brwl (GeneID 34275) [DRSC01080] → z-score, replicate 1: -0.7
brwl (GeneID 34275) [DRSC02729] → z-score, replicate 1: -0.3
foi (GeneID 38976) [DRSC10719] → z-score, replicate 1: 0.4
CG13970 (GeneID 2768911) [DRSC02311] → z-score, replicate 1: 0
Ggt-1 (GeneID 32839) [DRSC19993] → z-score, replicate 1: -0.3
SerT (GeneID 37895) [DRSC04655] → z-score, replicate 1: -0.3
CG7990 (GeneID 32909) [DRSC19296] → z-score, replicate 1: 0.1
CG7990 (GeneID 32909) [DRSC20069] → z-score, replicate 1: 2.1
CR10032 (GeneID 40877) [DRSC12499] → z-score, replicate 1: -0.1
CG4768 (GeneID 32666) [DRSC19917] → z-score, replicate 1: 0
Had1 (GeneID 32592) [DRSC20216] → z-score, replicate 1: -0.3
CG9992 (GeneID 32605) [DRSC20226] → z-score, replicate 1: -0.3
Listericin (GeneID 36183) [DRSC07334] → z-score, replicate 1: -0.3
CG17572 (GeneID 35182) [DRSC02629] → z-score, replicate 1: -0.2
CG14418 (GeneID 31275) [DRSC18637] → z-score, replicate 1: 0.8
CG33124 (GeneID 318891) [DRSC00298] → z-score, replicate 1: -0.2
